PubChem BioAssay AID1508597, Cure First – 2020
This is a random part of about 2,100 reagents tested. 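Calls flag viability under 80% in either arm, not effects specific to rucaparib; the reference for percent is not stated.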 Unmarked entries are inactive. Not given: the 100% reference.

Aim: 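Survival screen with siRNA in ovarian cancer cells derived from patients, with or without rucaparib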 (primary screen)
System: human ovarian carcinoma lines grown from tumours: OCI-P5x (papillary serous) and OCI-C5x (clear cell)
Reagents: siRNA pool against human genes, 1.25 pmol siRNA per well
Duration: 72 h or 96 h, depending on the cell culture
Challenge: rucaparib 20 µM (about IC30) or vehicle, present until read-out
Detection: 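ATP luminescence measured at 72 or 96 h according to the culture, then normalised and expressed as percent viability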
Reading the numbers: viability, normalised: higher = more viable cells remaining
Rule for the call: 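Active when normalised viability falls below 80 percent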
Meaning of the calls: active = viability under 80%; inactive = viability 80% or more

MAD2L2 (mitotic arrest deficient 2 like 2), rucaparib or vehicle Rucaparib, cell line OCI-C5x (clear cell), technical replicate 1 → viability, normalised (%): 39.9 (active)
MAD2L2 (mitotic arrest deficient 2 like 2), rucaparib or vehicle Rucaparib, cell line OCI-C5x (clear cell), technical replicate 2 → viability, normalised (%): 38.9 (active)
MAD2L2 (mitotic arrest deficient 2 like 2), rucaparib or vehicle Rucaparib, cell line OCI-C5x (clear cell), technical replicate 3 → viability, normalised (%): 42 (active)
MAD2L2 (mitotic arrest deficient 2 like 2), rucaparib or vehicle Rucaparib, cell line OCI-P5x (serous), technical replicate 1 → viability, normalised (%): 74.6 (active)
MAD2L2 (mitotic arrest deficient 2 like 2), rucaparib or vehicle Rucaparib, cell line OCI-P5x (serous), technical replicate 2 → viability, normalised (%): 72.9 (active)
MAD2L2 (mitotic arrest deficient 2 like 2), rucaparib or vehicle Rucaparib, cell line OCI-P5x (serous), technical replicate 3 → viability, normalised (%): 72.4 (active)
MAD2L2 (mitotic arrest deficient 2 like 2), rucaparib or vehicle Vehicle, cell line OCI-C5x (clear cell), technical replicate 1 → viability, normalised (%): 50.7 (active)
MAD2L2 (mitotic arrest deficient 2 like 2), rucaparib or vehicle Vehicle, cell line OCI-C5x (clear cell), technical replicate 2 → viability, normalised (%): 60.3 (active)
MAD2L2 (mitotic arrest deficient 2 like 2), rucaparib or vehicle Vehicle, cell line OCI-C5x (clear cell), technical replicate 3 → viability, normalised (%): 42.8 (active)
MAD2L2 (mitotic arrest deficient 2 like 2), rucaparib or vehicle Vehicle, cell line OCI-P5x (serous), technical replicate 1 → viability, normalised (%): 69.9 (active)
MAD2L2 (mitotic arrest deficient 2 like 2), rucaparib or vehicle Vehicle, cell line OCI-P5x (serous), technical replicate 2 → viability, normalised (%): 64.3 (active)
MAD2L2 (mitotic arrest deficient 2 like 2), rucaparib or vehicle Vehicle, cell line OCI-P5x (serous), technical replicate 3 → viability, normalised (%): 71.3 (active)
ADAM17 (ADAM metallopeptidase domain 17), rucaparib or vehicle Rucaparib, cell line OCI-C5x (clear cell), technical replicate 1 → viability, normalised (%): 71.7 (active)
ADAM17 (ADAM metallopeptidase domain 17), rucaparib or vehicle Rucaparib, cell line OCI-C5x (clear cell), technical replicate 2 → viability, normalised (%): 43.2 (active)
ADAM17 (ADAM metallopeptidase domain 17), rucaparib or vehicle Rucaparib, cell line OCI-C5x (clear cell), technical replicate 3 → viability, normalised (%): 57.9 (active)
ADAM17 (ADAM metallopeptidase domain 17), rucaparib or vehicle Rucaparib, cell line OCI-P5x (serous), technical replicate 1 → viability, normalised (%): 46.3 (active)
ADAM17 (ADAM metallopeptidase domain 17), rucaparib or vehicle Rucaparib, cell line OCI-P5x (serous), technical replicate 2 → viability, normalised (%): 43.6 (active)
ADAM17 (ADAM metallopeptidase domain 17), rucaparib or vehicle Rucaparib, cell line OCI-P5x (serous), technical replicate 3 → viability, normalised (%): 46.1 (active)
ADAM17 (ADAM metallopeptidase domain 17), rucaparib or vehicle Vehicle, cell line OCI-C5x (clear cell), technical replicate 1 → viability, normalised (%): 48.7 (active)
ADAM17 (ADAM metallopeptidase domain 17), rucaparib or vehicle Vehicle, cell line OCI-C5x (clear cell), technical replicate 2 → viability, normalised (%): 36.6 (active)
ADAM17 (ADAM metallopeptidase domain 17), rucaparib or vehicle Vehicle, cell line OCI-C5x (clear cell), technical replicate 3 → viability, normalised (%): 45.2 (active)
ADAM17 (ADAM metallopeptidase domain 17), rucaparib or vehicle Vehicle, cell line OCI-P5x (serous), technical replicate 1 → viability, normalised (%): 26.1 (active)
ADAM17 (ADAM metallopeptidase domain 17), rucaparib or vehicle Vehicle, cell line OCI-P5x (serous), technical replicate 2 → viability, normalised (%): 43.9 (active)
ADAM17 (ADAM metallopeptidase domain 17), rucaparib or vehicle Vehicle, cell line OCI-P5x (serous), technical replicate 3 → viability, normalised (%): 94.8
CLDN14 (claudin 14), rucaparib or vehicle Rucaparib, cell line OCI-C5x (clear cell), technical replicate 1 → viability, normalised (%): 53.8 (active)
CLDN14 (claudin 14), rucaparib or vehicle Rucaparib, cell line OCI-C5x (clear cell), technical replicate 2 → viability, normalised (%): 37.7 (active)
CLDN14 (claudin 14), rucaparib or vehicle Rucaparib, cell line OCI-C5x (clear cell), technical replicate 3 → viability, normalised (%): 37.3 (active)
CLDN14 (claudin 14), rucaparib or vehicle Rucaparib, cell line OCI-P5x (serous), technical replicate 1 → viability, normalised (%): 62.7 (active)
CLDN14 (claudin 14), rucaparib or vehicle Rucaparib, cell line OCI-P5x (serous), technical replicate 2 → viability, normalised (%): 76.3 (active)
CLDN14 (claudin 14), rucaparib or vehicle Rucaparib, cell line OCI-P5x (serous), technical replicate 3 → viability, normalised (%): 71.2 (active)
CLDN14 (claudin 14), rucaparib or vehicle Vehicle, cell line OCI-C5x (clear cell), technical replicate 1 → viability, normalised (%): 28.5 (active)
CLDN14 (claudin 14), rucaparib or vehicle Vehicle, cell line OCI-C5x (clear cell), technical replicate 2 → viability, normalised (%): 23.4 (active)
CLDN14 (claudin 14), rucaparib or vehicle Vehicle, cell line OCI-C5x (clear cell), technical replicate 3 → viability, normalised (%): 19.3 (active)
CLDN14 (claudin 14), rucaparib or vehicle Vehicle, cell line OCI-P5x (serous), technical replicate 1 → viability, normalised (%): 83.3
CLDN14 (claudin 14), rucaparib or vehicle Vehicle, cell line OCI-P5x (serous), technical replicate 2 → viability, normalised (%): 57.2 (active)
CLDN14 (claudin 14), rucaparib or vehicle Vehicle, cell line OCI-P5x (serous), technical replicate 3 → viability, normalised (%): 52.7 (active)
